Test results reported in publication doi:10.1101/2021.08.01.454609.
Results are given in words; binding and its absence hold for the method and conditions named. In cells and extracts the contact can be indirect. Some results given as binding are weak or reduced against the parent protein; the word gives no strength. For part of these data: Sequences can lack the tags named with a protein.

How the values were obtained:
coilin-D79A-GFP (human) = coilin-D79A-GFP (human) (UniProt P38432); assay: co-IP
coilin-R36A-GFP (human) = coilin-R36A-GFP (human) (UniProt P38432); assay: co-IP
coilin-R8A-GFP (human) = coilin-R8A-GFP (human) (UniProt P38432); assay: co-IP
[1] = target: coilin NTD R36A, CFP- and YFP-labeled copies for FRET (human) (UniProt P38432); assay: FRET or BRET
[2] = target: wild-type coilin-GFP (human) (UniProt P38432); assay: co-IP
[3] = target: coilin R36A, CFP-tagged, for FRET in HeLa cells (human) (UniProt P38432); assay: FRET or BRET
[4] = target: coilin R8A, CFP- and YFP-tagged, for FRET in HeLa cells (human) (UniProt P38432); assay: FRET or BRET

endogenous coilin (from UniProt P38432 1-576)
binding (coilin-D79A-GFP (human)): binds | binding (coilin-R36A-GFP (human)): binds | binding (coilin-R8A-GFP (human)): binds

B1: coilin NTD R36A, CFP- and YFP-labeled copies for FRET (domain or fragment, UniProt P38432 1-97)
chain: MAASETVRLRLQFDYPPPATPHCTAFWLLVDLNRCAVVTDLISLIRQRFGFSSGAFLGLYLEGGLLPPAESARLVRDNDCLRVKLEERGVAENSVVI
binding [1]: binds

B2: endogenous Nopp140 (protein, UniProt Q14978 1-699)
chain: MADAGIRRVVPSDLYPLVLGFLRDNQLSEVANKFAKATGATQQDANASSLLDIYSFWLKSAKVPERKLQANGPVAKKAKKKASSSDSEDSSEEEEEVQGPPAKKAAVPAKRVGLPPGKAAAKASESSSSEESSDDDDEEDQKKQPVQKGVKPQAKAAKAPPKKAKSSDSDSDSSSEDEPPKNQKPKITPVTVKAQTKAPPKPARAAPKIANGKAASSSSSSSSSSSSDDSEEEKAAATPKKTVPKKQVVAKAPVKAATTPTRKSSSSEDSSSDEEEEQKKPMKNKPGPYSSVPPPSAPPPKKSLGTQPPKKAVEKQQPVESSEDSSDESDSSSEEEKKPPTKAVVSKATTKPPPAKKAAESSSDSSDSDSSEDDEAPSKPAGTTKNSSNKPAVTTKSPAVKPAAAPKQPVGGGQKLLTRKADSSSSEEESSSSEEEKTKKMVATTKPKATAKAALSLPAKQAPQGSRDSSSDSDSSSSEEEEEKTSKSAVKKKPQKVAGGAAPSKPASAKKGKAESSNSSSSDDSSEEEEEKLKGKGSPRPQAPKANGTSALTAQNGKAAKNSEEEEEEKKKAAVVVSKSGSLKKRKQNEAAKEAETPQAKKIKLQTPNTFPKRKKGEKRASSPFRRVREEEIEVDSRVADNSFDAKRGAAGDWGERANQVLKFTKGKSFRHEKTKKKRGSYRGGSISVQVNSIKFDSE
binding (coilin-R36A-GFP (human)): no binding | binding (coilin-R8A-GFP (human)): no binding | binding [2]: binds

B3: Nopp140-YFP (protein, UniProt Q14978 1-699)
chain: MADAGIRRVVPSDLYPLVLGFLRDNQLSEVANKFAKATGATQQDANASSLLDIYSFWLKSAKVPERKLQANGPVAKKAKKKASSSDSEDSSEEEEEVQGPPAKKAAVPAKRVGLPPGKAAAKASESSSSEESSDDDDEEDQKKQPVQKGVKPQAKAAKAPPKKAKSSDSDSDSSSEDEPPKNQKPKITPVTVKAQTKAPPKPARAAPKIANGKAASSSSSSSSSSSSDDSEEEKAAATPKKTVPKKQVVAKAPVKAATTPTRKSSSSEDSSSDEEEEQKKPMKNKPGPYSSVPPPSAPPPKKSLGTQPPKKAVEKQQPVESSEDSSDESDSSSEEEKKPPTKAVVSKATTKPPPAKKAAESSSDSSDSDSSEDDEAPSKPAGTTKNSSNKPAVTTKSPAVKPAAAPKQPVGGGQKLLTRKADSSSSEEESSSSEEEKTKKMVATTKPKATAKAALSLPAKQAPQGSRDSSSDSDSSSSEEEEEKTSKSAVKKKPQKVAGGAAPSKPASAKKGKAESSNSSSSDDSSEEEEEKLKGKGSPRPQAPKANGTSALTAQNGKAAKNSEEEEEEKKKAAVVVSKSGSLKKRKQNEAAKEAETPQAKKIKLQTPNTFPKRKKGEKRASSPFRRVREEEIEVDSRVADNSFDAKRGAAGDWGERANQVLKFTKGKSFRHEKTKKKRGSYRGGSISVQVNSIKFDSE
binding [3]: no binding | binding [4]: no binding
